{"source": "patent US11673925B2", "about": "“Oligopeptide with anti-inflammatory activity, preparation method, and application thereof” (NANJING UNIVERSITY OF FINANCE AND ECONOMICS, priority 2021, dated 2023)", "tested_on": "LPS induced RAW 264.7 macrophages", "experiment": "ELISA of inflammatory factors (IL-1β, IL-6, IL-10, TNF-α) in LPS induced RAW 264.7 macrophages", "type": "cell-based", "key": {"[1]": {"settings": "320 μM oligopeptide vs 100 μM dexamethasone"}, "[2]": {"settings": "different concentrations (20, 80, 320 μM), p<0.05"}}, "note": "Part of at least one peptide drawing is inferred or uncertain, most often the ends. Where a SMILES comes first, the peptide text is derived from it.", "data": [{"smiles": "C[C@H](N)C(=O)N1CCC[C@H]1C(=O)N[C@@H](CCC(=O)O)C(=O)N1CCC[C@H]1C(=O)N[C@@H](CCC(=O)O)C(=O)N1CCC[C@H]1C(=O)N[C@@H](C)C(=O)N[C@@H](Cc1ccccc1)C(=O)O", "note": "[oligopeptide] (H-APEPEPAF-OH)", "values": [{"measurement": "secretion of IL-10 compared with the LPS model well", "setting": "20 μM, p>0.05", "value": "no significant difference"}, {"measurement": "secretion of IL-10 compared with the LPS model well", "setting": "80 μM, p<0.01", "value": "increasing trend"}, {"measurement": "concentration of IL-1β relative to cells in the positive well (DEX)", "setting": "[1]", "value": 98, "unit": "%"}, {"measurement": "concentration of IL-6 relative to cells in the positive well (DEX)", "setting": "[1]", "value": 94, "unit": "%"}, {"measurement": "concentration of IL-10 relative to cells in the positive well (DEX)", "setting": "[1]", "value": 1.01, "unit": "times"}, {"measurement": "concentration of TNF-α relative to cells in the positive well (DEX)", "setting": "[1]", "value": 95, "unit": "%"}, {"measurement": "concentration of (factor name not given) relative to cells in the LPS model well", "setting": "320 μM oligopeptide, LPS 24 h", "value": 61.36, "unit": "%"}, {"measurement": "concentration of IL-1β relative to cells in the LPS model well", "setting": "320 μM oligopeptide, LPS 24 h", "value": 78.91, "unit": "%"}, {"measurement": "concentration of IL-6 relative to cells in the LPS model well", "setting": "320 μM oligopeptide, LPS 24 h", "value": 79.19, "unit": "%"}, {"measurement": "secretion of IL-10 compared with the LPS model well", "setting": "320 μM, p<0.01", "value": "increasing trend"}, {"measurement": "secretion of IL-1β compared with the LPS model well", "setting": "[2]", "value": "significantly inhibited"}, {"measurement": "secretion of IL-6 compared with the LPS model well", "setting": "[2]", "value": "significantly inhibited"}, {"measurement": "secretion of TNF-α compared with the LPS model well", "setting": "[2]", "value": "significantly inhibited"}]}]}
